What was measured:
[1] = general procedure: Fmoc solid-phase peptide synthesis; rink amide resin AM LL; 2-Chlorotrityl chloride resin; HBTU/DIPEA; PyBOP/DIPEA for cyclization
[2] = general procedure: Fmoc solid-phase peptide synthesis; rink amide resin AM LL; HBTU/DIPEA; PyBOP/DIPEA for cyclization; conditions: whole synthesis; for isolated yield: overall
[3] = general procedure: Fmoc solid-phase peptide synthesis; 2-Chlorotrityl chloride resin; HBTU/DIPEA; PyBOP/DIPEA for cyclization; conditions: whole synthesis, scale 200 μmol
[4] = whole synthesis, scale of the general procedure 25-200 μmol

Row | Substance | conjugation yield ([1]; conjugation step) | final purity (method not given) ([1]; conjugation step) | further results
1 | SiFAlin-APG-PEG8-c(RGDfK)/GG-Nle-c(DHfRWK) | 58% | >99% | –
2 | NHS-PEG1-GG-Nle-c(DHfRWK) | 43% | >93% | –
3 | HO-Ox-EGEGE-GG-Nle-c(DHfRWK) | 44% | >99% | –
4 | SiFAlin-APG-DIG-c(RGDfK) | 46% | >97% | –
5 | NHS-PEG8-GG-Nle-c(DHfRWK) | 42% | >90% | –
6 | SiFAlin-APG-PEG1-c(RGDfK) | 60% | >96% | –
7 | NHS-PEG5-c(RGDfK) | 35% | >91% | –
8 | SiFAlin-APG-PEG3-c(RGDfK) | 67% | >96% | –
9 | SiFAlin-APG-PEG1-c(RGDfK)/GG-Nle-c(DHfRWK) | 77% | >99% | –
10 | NHS-PEG1-c(RGDfK) | 41% | >93% | –
11 | NHS-PEG3-c(RGDfK) | 29% | >89% | –
12 | EGEGE-GG-Nle-c(DHfRWK) | – | – | isolated yield ([2]; scale 125 μmol): 43%; isolated mass ([2]; scale 125 μmol): 85.2 mg; final purity (method not given) [1, 4]: >88%
13 | SiFAlin-APG-PEG8-c(RGDfK) | 49% | >99% | –
14 | SiFAlin-APG-PEG5-c(RGDfK) | 41% | >99% | –
15 | SiFAlin-APG-PEG3-c(RGDfK)/GG-Nle-c(DHfRWK) | 66% | >99% | –
16 | SiFAlin-APG-Ox-EGEGE-c(RGDfK) | 58% | >98% | –
17 | GG-Nle-c(DHfRWK) | – | – | isolated yield ([2]; scale 25 μmol): 42%; isolated mass ([2]; scale 25 μmol): 11.5 mg; final purity (method not given) [1, 4]: >99%
18 | HO-DIG-c(RGDfK) | 37% | >99% | –
19 | NHS-PEG8-c(RGDfK) | 32% | >82% | –
20 | NHS-PEG3-GG-Nle-c(DHfRWK) | 49% | >91% | –
21 | HO-DIG-GG-Nle-c(DHfRWK) | 61% | >99% | –
22 | NHS-PEG5-GG-Nle-c(DHfRWK) | 42% | >90% | –
23 | c(RGDfK)-EGEGE | – | – | isolated yield ([3]; overall): 41%; isolated mass [3]: 90.4 mg; final purity (method not given) [1, 4]: >99%
24 | HO-Ox-EGEGE-c(RGDfK) | 40% | >99% | –
25 | SiFAlin-APG-PEG5-c(RGDfK)/GG-Nle-c(DHfRWK) | 49% | >99% | –

From PMC8228600 (Pharmaceuticals, 2021)
